# Laboratory results: the supplement of paper PMC8728848
# The list shows a part of the results.
# B1: PX14351B-bth-512-36-512 (Bacteroides thetaiotaomicron) (protein)
# chain: ASETQQWKTLEDTRSALMGVYGLTRAALADNNTHWICGDLRKGDFTVYKRSDLQAVSDNELNKPYDLLKKVSNWRRFYAVINAASVFMEKAPRTVELDRSYSEQNLKYDIAQVRALRAFAYFYMVRIWGDVPLVTYSYDNGTFPSMPRTDAQTVLSYAKAELLTAIEDLPYQYGTQTNLYYGSYGAQWQGKLFNKLSAYSVLAHICAWQGNYAEAETYSAFIIDHASEINAKYTSIADLTSETGLFYSNASVKGSRILGFNFAHNDNEATQSGHLEQLTLAYPLVQKSYPEIYISKDSLFSIFTNFDDLRFGIIDTIKYSSYYVQNLNEETPVFSKIKIIQDGSAKDNDFGVFGSSIVFTRLEDITLLRAEALCALNRSTEAVSYLNMIRTNRGLREVSFKKDFGNNRESLIAEIFEERRRELMGEGWRWYDLVRRQKLMKDNEAFLRLISSGGIYWPVSEDIITANSQIEQNEFWK
# How the values were obtained:
# Experiment in all cases: glycan array binding signal (z-score within array); higher = stronger binding
# Details in all cases: glycan notation: IUPAC condensed, linker removed
# [1] = target: Neu5Ac(a2-3)Gal(b1-4)[Fuc(a1-3)]GlcNAc(b1-6)[Neu5Ac(a2-3)Gal(b1-3)]GalNAc
# Outline: (§1)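 Columns mapping to the same glycan were averaged after glycan names were converted to IUPAC-condensed notation. The data come from 3228 arrays in the Consortium for Functional Glycomics database, limited to those with an available protein sequence. Binding is reported as a within-array Z-score averaged across arrays of one protein sequence and across linkers.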
# [2] = target: Neu5Ac(a2-3)Gal(b1-4)[Fuc(a1-3)]GlcNAc6S
# Outline: as §1
# [3] = target: Neu5Ac(a2-3)Gal6S(b1-4)GlcNAc
# Outline: as §1
# [4] = target: Neu5Ac(a2-3)Gal6S(b1-4)[Fuc(a1-3)]GlcNAc
# Outline: as §1
# Neu5Ac(a2-3)GalNAc = target: Neu5Ac(a2-3)GalNAc
# Outline: as §1
# [5] = target: Neu5Ac(a2-3)GalNAc(b1-4)GlcNAc
# Outline: as §1
# [6] = target: Neu5Ac(a2-3)[GalNAc(b1-4)]Gal(b1-4)Glc
# Outline: as §1
# [7] = target: Neu5Ac(a2-3)[GalNAc(b1-4)]Gal(b1-4)GlcNAc
# Outline: as §1
# [8] = target: Neu5Ac(a2-3)[GalNAc(b1-4)]Gal(b1-4)GlcNAc(b1-3)GalNAc
# Outline: as §1
# [9] = target: Neu5Ac(a2-3)[Neu5Ac(a2-6)]GalNAc
# Outline: as §1
# Neu5Ac(a2-6)Gal = target: Neu5Ac(a2-6)Gal
# Outline: as §1
# [10] = target: Neu5Ac(a2-6)Gal(b1-3)GlcNAc(b1-3)[Gal(b1-4)GlcNAc(b1-6)]Gal(b1-4)Glc
# Outline: as §1
# Neu5Ac(a2-6)Gal(b1-4)Glc = target: Neu5Ac(a2-6)Gal(b1-4)Glc
# Outline: as §1
# [11] = target: Neu5Ac(a2-6)Gal(b1-4)GlcNAc
# Outline: as §1
# [12] = target: Neu5Ac(a2-6)Gal(b1-4)GlcNAc(b1-2)Man
# Outline: as §1
# [13] = target: Neu5Ac(a2-6)Gal(b1-4)GlcNAc(b1-2)Man(a1-3)Man(b1-4)GlcNAc(b1-4)GlcNAc
# Outline: as §1
# [14] = target: Neu5Ac(a2-6)Gal(b1-4)GlcNAc(b1-2)Man(a1-3)[Gal(b1-4)GlcNAc(b1-2)Man(a1-6)]Man(b1-4)GlcNAc(b1-4)GlcNAc
# Outline: as §1
# [15] = target: Neu5Ac(a2-6)Gal(b1-4)GlcNAc(b1-2)Man(a1-3)[GlcNAc(b1-2)Man(a1-6)]Man(b1-4)GlcNAc(b1-4)GlcNAc
# Outline: as §1
# [16] = target: Neu5Ac(a2-6)Gal(b1-4)GlcNAc(b1-2)Man(a1-3)[GlcNAc(b1-4)][Neu5Ac(a2-6)Gal(b1-4)GlcNAc(b1-2)Man(a1-6)]Man(b1-4)GlcNAc(b1-4)GlcNAc
# Outline: as §1
# [17] = target: Neu5Ac(a2-6)Gal(b1-4)GlcNAc(b1-2)Man(a1-3)[Man(a1-6)]Man(b1-4)GlcNAc(b1-4)GlcNAc
# Outline: as §1
# [18] = target: Neu5Ac(a2-6)Gal(b1-4)GlcNAc(b1-2)Man(a1-3)[Neu5Ac(a2-3)Gal(b1-4)GlcNAc(b1-2)Man(a1-6)]Man(b1-4)GlcNAc(b1-4)GlcNAc
# Outline: as §1
# [19] = target: Neu5Ac(a2-6)Gal(b1-4)GlcNAc(b1-2)Man(a1-3)[Neu5Ac(a2-6)Gal(b1-4)GlcNAc(b1-2)Man(a1-6)]Man(b1-4)GlcNAc(b1-4)GlcNAc
# Outline: as §1
# [20] = target: Neu5Ac(a2-6)Gal(b1-4)GlcNAc(b1-2)Man(a1-3)[Neu5Ac(a2-6)Gal(b1-4)GlcNAc(b1-2)Man(a1-6)]Man(b1-4)GlcNAc(b1-4)[Fuc(a1-6)]GlcNAc
# Outline: as §1
# [21] = target: Neu5Ac(a2-6)Gal(b1-4)GlcNAc(b1-2)Man(a1-6)Man(b1-4)GlcNAc(b1-4)GlcNAc
# Outline: as §1
# [22] = target: Neu5Ac(a2-6)Gal(b1-4)GlcNAc(b1-2)Man(a1-6)[Gal(b1-4)GlcNAc(b1-2)Man(a1-3)]Man(b1-4)GlcNAc(b1-4)GlcNAc
# Outline: as §1
# [23] = target: Neu5Ac(a2-6)Gal(b1-4)GlcNAc(b1-2)Man(a1-6)[GlcNAc(b1-2)Man(a1-3)]Man(b1-4)GlcNAc(b1-4)GlcNAc
# Outline: as §1
# [24] = target: Neu5Ac(a2-6)Gal(b1-4)GlcNAc(b1-2)Man(a1-6)[Man(a1-3)]Man(b1-4)GlcNAc(b1-4)GlcNAc
# Outline: as §1
# [25] = target: Neu5Ac(a2-6)Gal(b1-4)GlcNAc(b1-2)[Neu5Ac(a2-6)Gal(b1-4)GlcNAc(b1-4)]Man(a1-3)[GlcNAc(b1-4)][Neu5Ac(a2-6)Gal(b1-4)GlcNAc(b1-4)Man(a1-6)]Man(b1-4)GlcNAc(b1-4)GlcNAc
# Outline: as §1
# [26] = target: Neu5Ac(a2-6)Gal(b1-4)GlcNAc(b1-2)[Neu5Ac(a2-6)Gal(b1-4)GlcNAc(b1-6)]Man(a1-6)[Neu5Ac(a2-6)Gal(b1-4)GlcNAc(b1-2)Man(a1-3)][GlcNAc(b1-4)]Man(b1-4)GlcNAc(b1-4)GlcNAc
# Outline: as §1
# [27] = target: Neu5Ac(a2-6)Gal(b1-4)GlcNAc(b1-3)Gal(b1-3)GlcNAc
# Outline: as §1
# [28] = target: Neu5Ac(a2-6)Gal(b1-4)GlcNAc(b1-3)Gal(b1-4)GlcNAc
# Outline: as §1
# [29] = target: Neu5Ac(a2-6)Gal(b1-4)GlcNAc(b1-3)Gal(b1-4)GlcNAc(b1-2)Man(a1-3)[Neu5Ac(a2-6)Gal(b1-4)GlcNAc(b1-3)Gal(b1-4)GlcNAc(b1-2)Man(a1-6)]GalNAc
# Outline: as §1
# [30] = target: Neu5Ac(a2-6)Gal(b1-4)GlcNAc(b1-3)Gal(b1-4)GlcNAc(b1-3)Gal(b1-4)GlcNAc
# Outline: as §1
# [31] = target: Neu5Ac(a2-6)Gal(b1-4)GlcNAc(b1-3)Gal(b1-4)GlcNAc(b1-3)Gal(b1-4)GlcNAc(b1-2)Man(a1-3)[Neu5Ac(a2-6)Gal(b1-4)GlcNAc(b1-3)Gal(b1-4)GlcNAc(b1-3)Gal(b1-4)GlcNAc(b1-2)Man(a1-6)]GalNAc
# Outline: as §1
# [32] = target: Neu5Ac(a2-6)Gal(b1-4)GlcNAc(b1-3)Gal(b1-4)GlcNAc(b1-3)GalNAc
# Outline: as §1
# [33] = target: Neu5Ac(a2-6)Gal(b1-4)GlcNAc(b1-3)Gal(b1-4)GlcNAc(b1-6)[Gal(b1-3)]GalNAc
# Outline: as §1
# [34] = target: Neu5Ac(a2-6)Gal(b1-4)GlcNAc(b1-3)Gal(b1-4)[Fuc(a1-3)]GlcNAc(b1-3)Gal(b1-4)[Fuc(a1-3)]GlcNAc
# Outline: as §1
binder,measurement,setting,value
B1,glycan array binding signal (z-score),[1],0.196
same,glycan array binding signal (z-score),[2],-0.278
same,glycan array binding signal (z-score),[3],-0.172
same,glycan array binding signal (z-score),[4],-0.349
same,glycan array binding signal (z-score),Neu5Ac(a2-3)GalNAc,-0.418
same,glycan array binding signal (z-score),[5],-0.276
same,glycan array binding signal (z-score),[6],-0.198
same,glycan array binding signal (z-score),[7],-0.184
same,glycan array binding signal (z-score),[8],0.314
same,glycan array binding signal (z-score),[9],-0.511
same,glycan array binding signal (z-score),Neu5Ac(a2-6)Gal,-0.359
same,glycan array binding signal (z-score),[10],-0.226
same,glycan array binding signal (z-score),Neu5Ac(a2-6)Gal(b1-4)Glc,-0.108
same,glycan array binding signal (z-score),[11],-0.062
same,glycan array binding signal (z-score),[12],-0.293
same,glycan array binding signal (z-score),[13],0.126
same,glycan array binding signal (z-score),[14],1.05
same,glycan array binding signal (z-score),[15],-0.206
same,glycan array binding signal (z-score),[16],-0.228
same,glycan array binding signal (z-score),[17],-0.245
same,glycan array binding signal (z-score),[18],-0.295
same,glycan array binding signal (z-score),[19],-0.173
same,glycan array binding signal (z-score),[20],-0.125
same,glycan array binding signal (z-score),[21],0.633
same,glycan array binding signal (z-score),[22],-0.24
same,glycan array binding signal (z-score),[23],0.169
same,glycan array binding signal (z-score),[24],-0.167
same,glycan array binding signal (z-score),[25],0.063
same,glycan array binding signal (z-score),[26],-0.267
same,glycan array binding signal (z-score),[27],-0.422
same,glycan array binding signal (z-score),[28],0.167
same,glycan array binding signal (z-score),[29],0.866
same,glycan array binding signal (z-score),[30],-0.148
same,glycan array binding signal (z-score),[31],1.5
same,glycan array binding signal (z-score),[32],0.397
same,glycan array binding signal (z-score),[33],-0.249
same,glycan array binding signal (z-score),[34],0.063

# Laid out differently: entries from further up.
binder	measurement	setting	value
B1	glycan array binding signal (z-score)	[9]	-0.511
same	glycan array binding signal (z-score)	Neu5Ac(a2-6)Gal	-0.359
same	glycan array binding signal (z-score)	[14]	1.05
same	glycan array binding signal (z-score)	[22]	-0.24
same	glycan array binding signal (z-score)	[26]	-0.267
same	glycan array binding signal (z-score)	[28]	0.167
same	glycan array binding signal (z-score)	[34]	0.063
